Data taken from patent publication US10613105.
Results are given in words; binding and its absence hold for the method and conditions named. Some binding calls cover weakened binding; strength is not graded here.

Chains of the proteins cited; added tags and fusions are not shown. Lines headed by an entry give the natural chain unless they say otherwise; changes in a name come on top. Residues count along the entry.
UniProt O00206, residues 24-631: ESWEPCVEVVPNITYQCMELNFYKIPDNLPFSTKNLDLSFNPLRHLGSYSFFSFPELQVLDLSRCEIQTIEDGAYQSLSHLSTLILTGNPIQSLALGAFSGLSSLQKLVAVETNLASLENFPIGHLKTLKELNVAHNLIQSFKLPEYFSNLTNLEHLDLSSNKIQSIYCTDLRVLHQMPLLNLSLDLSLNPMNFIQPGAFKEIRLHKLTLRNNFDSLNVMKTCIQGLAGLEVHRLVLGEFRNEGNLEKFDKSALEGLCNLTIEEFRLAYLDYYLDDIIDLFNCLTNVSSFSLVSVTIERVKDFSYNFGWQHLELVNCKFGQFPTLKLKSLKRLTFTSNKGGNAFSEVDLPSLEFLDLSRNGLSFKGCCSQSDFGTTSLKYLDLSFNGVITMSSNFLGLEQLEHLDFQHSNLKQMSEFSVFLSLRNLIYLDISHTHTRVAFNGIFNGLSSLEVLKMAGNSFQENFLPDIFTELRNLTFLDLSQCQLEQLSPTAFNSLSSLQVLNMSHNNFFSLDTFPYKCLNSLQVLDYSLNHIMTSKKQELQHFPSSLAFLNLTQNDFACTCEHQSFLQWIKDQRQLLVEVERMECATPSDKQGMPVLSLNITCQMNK

Experiments:
[1] = target: TLR4/CD284 from baculovirus insect cells, Hölzel Diagnostik GmbH, 10146-H08B-100 (UniProt O00206); assay: fluorescence photometry of Ni-NTA magnetic agarose beads loaded with his-tagged TLR4; the bound peptide is displaced in the 2nd incubation by Alexa Fluor 488-labeled LPS
[2] = target: TLR4/CD284 from baculovirus insect cells, Hölzel Diagnostik GmbH, 10146-H08B-100 (UniProt O00206); assay: fluorescence on Ni-NTA magnetic agarose beads carrying his-tagged TLR4
[3] = target: TLR4/CD284 from baculovirus insect cells, Hölzel Diagnostik GmbH, 10146-H08B-100 (UniProt O00206); assay: fluorescence microscopy of Ni-NTA magnetic agarose beads carrying his-tagged TLR4

Measured: binding

GLLHIFYIPRRDLKQLYFNL (TAMRA label (position not given)) [TAMRA-labeled … peptide]
binds: [1] | [2] | [3]
